This note sets out measurements from article PMC8787347.

By UniProt entry, the sequences of proteins in these tests, tags left out.
UniProt Q9NVP2: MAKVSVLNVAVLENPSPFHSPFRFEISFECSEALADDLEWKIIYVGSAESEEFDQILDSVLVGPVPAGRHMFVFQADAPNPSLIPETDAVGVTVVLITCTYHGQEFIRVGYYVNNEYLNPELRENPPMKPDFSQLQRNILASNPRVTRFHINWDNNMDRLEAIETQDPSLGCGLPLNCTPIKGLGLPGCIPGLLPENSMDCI
UniProt P50750: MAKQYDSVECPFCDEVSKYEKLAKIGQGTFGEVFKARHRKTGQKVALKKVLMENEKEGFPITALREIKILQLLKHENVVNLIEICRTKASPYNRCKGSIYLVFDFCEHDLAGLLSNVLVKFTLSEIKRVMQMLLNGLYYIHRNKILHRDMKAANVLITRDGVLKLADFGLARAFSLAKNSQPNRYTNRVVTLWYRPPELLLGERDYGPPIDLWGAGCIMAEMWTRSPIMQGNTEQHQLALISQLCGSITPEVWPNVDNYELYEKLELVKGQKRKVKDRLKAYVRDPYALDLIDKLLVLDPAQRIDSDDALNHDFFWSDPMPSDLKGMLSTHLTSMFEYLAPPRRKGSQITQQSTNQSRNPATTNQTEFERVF

Results are given in words; binding and its absence hold for the method and conditions named. Binding seen in cells or lysates may run through a third protein. Some binding calls cover weakened binding; strength is not graded here.

The assay deals with anti-silencing function 1B (ASF1B) (human (endogenous in MHCC97H and Hep3B)) (UniProt Q9NVP2). As to the kind of experiment: co-IP; lysates of untreated MHCC97H and Hep3B cells, pre-cleared with protein A/G agarose; immunoprecipitated with anti-ASF1B antibody (CST) or normal rabbit IgG overnight at 4°C; protein A/G agarose beads 1 hour at 4°C; Western blot; Absin IP/Co-IP kit. (In western blotting, separated proteins are transferred to a membrane and probed.)

Take CDK9 (from UniProt P50750 1-372): the binding result is “binds”.
